Measurements from the supplement of paper PMC12889115.
This is one part of the list. Values are raw readings; no control value is given beside them.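 First-pass screen: polymyxin B was added at a level that permeabilizes the Salmonella outer membrane while sparing the inner membrane. DMSO wells, with and without polymyxin B, defined maximum growth. Because plates differed from one another, each plate's data were ranked separately and the compounds with the lowest OD600 were carried forward as hits.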

Tested on: Salmonella enterica serovar Typhimurium SL1344
Experiment: bacterial growth OD600 after 18 h with compound and polymyxin B; higher = more bacterial growth (less inhibition)
Conditions: 50 µM, Mueller-Hinton broth

Row | SMILES | bacterial growth OD600 (polymyxin B 1 µg/mL) | bacterial growth OD600 (polymyxin B 0.75 µg/mL)
1 | CCN(CC1CCCN(CCc2cccc(F)c2)C1)C(=O)Cc1ccc(OC)cc1 (stereo unspecified) | 0.703 | 
2 | COc1cc(NC(=O)CCC2CCCN(C(=O)Cn3ccc(C)n3)C2)cc(OC)c1 (stereo unspecified) | 0.812 | 
3 | CCOc1ccc2nc(N3CCCN(Cc4ccc(NC(C)=O)cc4)CC3)nc(C)c2c1 |  | 0.569
4 | Cc1ccc(C(=O)N2CCCC(CO)(Cc3ccccc3)C2)cc1N1CCNC1=O (stereo unspecified) | 0.873 | 
5 | O=C(CC1CCCC1)Nc1cccc(N2CCC(NCc3cnn(Cc4ccccc4)c3)CC2)c1 |  | 0.805
6 | CCOC(=O)C1CCN(CC2(O)CCCN(Cc3ccccc3F)C2=O)CC1 (stereo unspecified) | 0.924 | 
7 | O=C1CCC(CCC(=O)N2CCCC2c2ccc(F)cc2)(Cc2ccccc2)N1 (stereo unspecified) |  | 1.04
8 | CSc1ccc(CC2(CCC(=O)NCc3nc(-c4ccccc4)cs3)CCC(=O)N2)cc1 (stereo unspecified) |  | 0.668
9 | CC1CCN(C(=O)CC2C(=O)NCCN2Cc2cccc(C(F)(F)F)c2)CC1 (stereo unspecified) | 0.86 | 
10 | COc1ccc(CN2CCOc3ccc(C(O)Cc4ccccc4)cc3C2)c(OC)c1 (stereo unspecified) |  | 0.551
11 | O=C(NCCc1cscn1)c1cc(Cn2ccc3ccccc32)[nH]n1 |  | 0.803
12 | Cc1cc(CNC(=O)c2cnn(-c3ncc4c(n3)-c3ccccc3CC4)c2C)on1 |  | 1.03
13 | COC(=O)CCCNC(=O)c1ccc2nc(Cc3ccccc3F)oc2c1 |  | 0.898
14 | COCCNC(=O)c1ccc(OC)cc1OC1CCN(Cc2ccc(SC)cc2)CC1 | 1.21 | 
15 | CN(C)C(=O)CN1CCN(Cc2nc(-c3ccc(Cl)cc3)no2)CC1 | 0.866 | 
16 | Cc1cc(N2CCN(C(=O)Cn3nnnc3CN3CCC(C)CC3)CC2)cc(C)n1 |  | 0.821

Row | SMILES | bacterial growth OD600 (polymyxin B 1 µg/mL) | bacterial growth OD600 (polymyxin B 0.75 µg/mL)
17 | CO[C@H]1[C@H](NC(=O)COc2ccccc2)c2ccccc2C12CCN(C(=O)C1(C)CC1)CC2 |  | 0.811
18 | O=C(N1CCCC(Nc2ccc(F)cc2)C1)C12CC3CC(CC(C3)C1)C2 (stereo unspecified) | 0.035 | 
19 | Cc1ccccc1CCC1CCCN(C(=O)CC2CC2)C1 (stereo unspecified) |  | 0.001
20 | Cc1ncsc1CCC(=O)NC1CCCc2c1cnn2-c1ccccc1F (stereo unspecified) | 0.793 | 
21 | CC(C)(CN1CCOCC1)CN1CC[C@@H](N2CCCCCC2)[C@H](O)C1 |  | 0.796
22 | Cc1nc(N2CCC(C(=O)NC34CC5CC(CC(C5)C3)C4)CC2)nc2cc(S(C)(=O)=O)ccc12 |  | 0.003
23 | O=C(c1coc(COc2ccc(F)cc2)n1)N1CCN(CC2CC2)CC1 | 1 | 
24 | c1csc(CN(CCN2CCCCC2)CC2CCCN(C3CCCC3)C2)n1 (stereo unspecified) |  | 0.784
25 | CC(Cc1cccnc1)NC(=O)c1cc(COc2cccc3cnccc23)on1 (stereo unspecified) |  | 0.003
26 | Cc1nc(CNCC2(O)CCCN(Cc3ccc(F)c(F)c3)C2=O)cs1 (stereo unspecified) | 0.895 | 
27 | CC(C)NC1CCCc2nc(-c3ccccc3)ncc21 (stereo unspecified) | 0.796 | 
28 | OCC1CCN(c2ncc3c(n2)CCCC3NCc2cccc(F)c2)CC1 (stereo unspecified) |  | 0.787
29 | Cc1ccccc1Oc1ncccc1CNC(=O)CCc1c(C)nn(C)c1C | 0.964 | 
30 | Cc1nc2cc(OCc3cc(C(=O)N4CCN(C)C(c5ccccc5)C4)no3)ccc2s1 (stereo unspecified) | 0.011 | 
31 | CN(C)C(=O)N1CCC(C(=O)NC2CC(C)(C)Cc3c2cnn3-c2ccccc2)CC1 (stereo unspecified) | 0.913 | 
